The values below come from paper PMC7819943, “Rice protein-binding microarrays: a tool to detect cis-acting elements near promoter regions in rice”.

The chains behind the UniProt entries cited, without tags or fusion partners.
UniProt Q0JBA9, entry or part of it: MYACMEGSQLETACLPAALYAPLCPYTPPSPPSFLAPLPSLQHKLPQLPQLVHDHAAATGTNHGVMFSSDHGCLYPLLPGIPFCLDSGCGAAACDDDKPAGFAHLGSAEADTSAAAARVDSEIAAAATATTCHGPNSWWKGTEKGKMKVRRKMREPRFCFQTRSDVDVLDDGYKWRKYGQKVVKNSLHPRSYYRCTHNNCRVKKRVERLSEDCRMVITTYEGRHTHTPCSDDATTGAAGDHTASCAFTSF

The list shows a part of the results.

The test concerns the target OsWRKY34 (Oryza sativa, UniProt Q0JBA9 1-250). Kind of test: protein-binding microarray (RPBM); PBS, 2% BSA, 51.3 ng/ul salmon testes DNA, 50 uM zinc acetate, 200 nM TF, 25 C, 1 h; high values mean tight binding. The settings on record: protein: recombinant; tags: N-terminal polyhistidine and DsRed monomer fusion (pET32a); label: CyDye5-dUTP incorporated in the synthesized complementary strand; 3' TTTTT single-stranded linker to array surface; dsDNA, one strand shown. The essentials: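 An Axon 4000B scanner gave the binding signal as per-feature fluorescence intensity in arbitrary units. This followed washing of a custom Agilent array that had been incubated for 1 h at 25 °C with 200 nM protein in PBS, 2% BSA, salmon testes DNA and 50 µM zinc acetate. The proteins were transcription factors fused at the N-terminus to polyhistidine and DsRed, expressed in E. coli BL21-CodonPlus and purified on Ni–NTA.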
Take “GTCTTCCTCGCCACCACCATCTGTCAACTGCGACGACATGCGGAGTCACCTAGTGCAG”: the binding signal is 8700 fluorescence intensity (a.u.).

In the case of “GTCCACCTCCACCATCCATCCCCTACACTGTCGCGAGCGCCGGAGTCACCTAGTGCAG”, the binding signal is 10100 fluorescence intensity (a.u.).

On to “CATTGGCTGCTTGATATCGCCTTATATGCGCTCATAATTTCGGAGTCACCTAGTGCAG”, for which the binding signal is 11100 fluorescence intensity (a.u.).

Take “TCTCACCGCAGCCTGAGGAATCCATTTTGTCGGTTCTTCTCGGAGTCACCTAGTGCAG”: the binding signal was 10300 fluorescence intensity (a.u.).

Regarding “GCGTGTGACGACCGCCCATGCCGCCGCCGTTCCTCCTTTCCGGAGTCACCTAGTGCAG”, the binding signal is 8490 fluorescence intensity (a.u.).

On to “TTGGTCATTCTGTTTTACCGCACAGGCATTCATTAGACCTCGGAGTCACCTAGTGCAG”, for which the binding signal is 8140 fluorescence intensity (a.u.).

Regarding “AACCACCCAACCCAGCCCAACAATCCCAATCTCTCTCTCTCGGAGTCACCTAGTGCAG”, the binding signal is 9520 fluorescence intensity (a.u.).

On to “TGAATAGTACTTTACTCGTGACTTATGTTTTTATTTTTTTCGGAGTCACCTAGTGCAG”, for which the binding signal was 9810 fluorescence intensity (a.u.).

“GACGTGACACTGGAGGAATGGAGGGGTTTTTTTTTTTCTTCGGAGTCACCTAGTGCAG”: the binding signal was 10700 fluorescence intensity (a.u.).

With “ATTCTGCTCCGATCTAATCTTCATCTTCGATACTGATATTCGGAGTCACCTAGTGCAG”, the binding signal was 9470 fluorescence intensity (a.u.).

Regarding “TGCTCGTACACCACACCTCCACACCTACACGCGCGCGCGCCGGAGTCACCTAGTGCAG”, the binding signal was 9540 fluorescence intensity (a.u.).

With “CACCCATCACCTATATATACACATACTTCCCATCGTCTCCCGGAGTCACCTAGTGCAG”, the binding signal is 8220 fluorescence intensity (a.u.).

Turning to “CACCTTGTCCCAGTTTGTTATCATTTGAGAAGTTATTTGTCGGAGTCACCTAGTGCAG”, the binding signal was 10500 fluorescence intensity (a.u.).

As for “CCCTTTTGTCTACCTCCTGCTCGTTTCCACCCCTTTCCTTCGGAGTCACCTAGTGCAG”, the binding signal was 12800 fluorescence intensity (a.u.).

Take “CGGTTATAGTTCCAGCCATACTGAGGTCTGCTACATGATCCGGAGTCACCTAGTGCAG”: the binding signal was 8380 fluorescence intensity (a.u.).

In the case of “CGGCTAGGTTTCATCGCATCCCGCGATCTGTTTCGTCCAGCGGAGTCACCTAGTGCAG”, the binding signal was 9030 fluorescence intensity (a.u.).

Regarding “ATGATCTTCCGTTGTATTCATGTTGAAATTATGGTCTTGTCGGAGTCACCTAGTGCAG”, the binding signal is 8720 fluorescence intensity (a.u.).

On to “GTTGCGCCCGTCTTTGTCTCGTTTGTCTCGAATACTCTCCCGGAGTCACCTAGTGCAG”, for which the binding signal was 9790 fluorescence intensity (a.u.).

Regarding “TCACTCTTCAGTCTTCACCTCGCGGAGGCGCAGTATTCCCCGGAGTCACCTAGTGCAG”, the binding signal was 8070 fluorescence intensity (a.u.).

Regarding “AAATACCCGCCCCATCTTCACCCGCAGCTATATAATATCACGGAGTCACCTAGTGCAG”, the binding signal was 9300 fluorescence intensity (a.u.).

With “TCTCTTTCGCGCCCTTTATATGCCGCTCTCCCGCGCGCCCCGGAGTCACCTAGTGCAG”, the binding signal was 12300 fluorescence intensity (a.u.).

On to “ACGCTAGCACGTCATTACTGTTTCTCACCGATCACAAGGGCGGAGTCACCTAGTGCAG”, for which the binding signal was 8060 fluorescence intensity (a.u.).

As to “GGTGCTTTGGTTGGGCCCATTTGGAACAGCGCATCTTTGACGGAGTCACCTAGTGCAG”, the binding signal is 8240 fluorescence intensity (a.u.).
